Values quoted from earlier work, collected in patent publication US8778961B2, “O-methylated rapamycin derivatives for alleviation and inhibition of lymphoproliferative disorders” (The Trustees of the University of Pennsylvania, priority 2000, dated 2014).
For at least one compound, name, drawing or mass did not settle the structure.

Tested on: HTLV-I (+) T-cell lines ATL-2, C10MJ2, HUT102B
Details: Zhang et al., 1999, Leukemia Res. 23:373-384; cited from earlier work

CO[C@H]1C[C@@H]2CC[C@@H](C)[C@@](O)(O2)C(=O)C(=O)N2CCCC[C@H]2C(=O)O[C@H]([C@H](C)C[C@@H]2CC[C@@H](O)[C@H](OC)C2)CC(=O)[C@H](C)/C=C(\C)[C@@H](O)[C@@H](OC)C(=O)[C@H](C)C[C@H](C)/C=C/C=C/C=C/1C [rapamycin, Rapamycin]
response of cell lines to the drug: non-responsive
